Source: paper PMC4094919, “Screening and hit evaluation of a chemical library against blood-stage Plasmodium falciparum” (Malaria Journal, 2014)

System: P. falciparum NF54 strain
Assay: P. falciparum NF54 growth assay, 3H-hypoxanthine incorporation (hit validation)
Format: cell-based, Plasmodium falciparum
Conditions: Ligand Efficiency Index = pEC50/(MW/1000)
Description: Synthesized compounds were tested in an alternative assay, in which ^3H-hypoxanthine incorporation was measured in the chloroquine-sensitive strain NF54 (Values were measured in duplicate, 12 points/EC50).
Cultivation of Plasmodium falciparum: Plasmodium falciparum strain NF54 was obtained from the Research and Reference Reagent Resource Center (MR4) (Manassas, VA, USA). The two strains were maintained in vitro by a modification of the method of Trager and Jensen. Cultures were maintained in A positive (A^+) human erythrocytes suspended at 5% hematocrit in complete medium. […] Parasite growth and morphology were observed daily using thin smears at 100X (oil immersion) magnification following staining with Giemsa stain. […]
Following the incubation period, the plates were harvested with a FilterMate cell harvester (Perkin Elmer) onto unifilter-96 GF/B plates, washed with distilled water to remove excess radiochemical and plates were kept for drying 37°C overnight or 60°C for 1 hr. […] The plates were counted in a Top Count NXT microplate scintillation and luminescence counter (Perkin Elmer). The mean values for [^3H]-hypoxanthine incorporation in parasitized control and non-parasitized control erythrocytes were calculated.
Assay data were analysed using Graph pad prism ver.5 software. […]

`O=C(Nc1cccc(Cl)c1)N1CC2(CCN(Cc3ccccc3)CC2)c2ccccc21` [Compound 17, 1'-benzyl-N-(3-chlorophenyl)spiro[indoline-3,4'-piperidine]-1-carboxamide] was tested, and the “LEI (NF54)” value was 15.1.
